Results of single-concentration screens

The chains behind the UniProt entries cited, without tags or fusion partners. Residues count along the entry.
UniProt P9WFT3, whole entry: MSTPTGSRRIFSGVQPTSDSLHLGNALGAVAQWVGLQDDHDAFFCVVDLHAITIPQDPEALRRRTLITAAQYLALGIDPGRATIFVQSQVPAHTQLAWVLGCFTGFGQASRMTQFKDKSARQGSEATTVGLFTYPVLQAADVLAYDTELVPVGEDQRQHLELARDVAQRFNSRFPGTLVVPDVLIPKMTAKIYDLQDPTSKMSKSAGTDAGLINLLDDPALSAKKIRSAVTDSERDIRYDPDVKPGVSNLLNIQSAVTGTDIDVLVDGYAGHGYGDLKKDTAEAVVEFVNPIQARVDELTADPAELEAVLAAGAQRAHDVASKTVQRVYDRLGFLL
UniProt P9WPC5, whole entry: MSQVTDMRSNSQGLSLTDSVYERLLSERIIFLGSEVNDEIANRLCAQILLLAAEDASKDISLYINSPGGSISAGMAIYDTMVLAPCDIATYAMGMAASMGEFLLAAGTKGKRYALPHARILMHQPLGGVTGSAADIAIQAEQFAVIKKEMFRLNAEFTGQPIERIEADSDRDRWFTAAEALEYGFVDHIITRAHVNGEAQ
UniProt P9WPC3, whole entry partner: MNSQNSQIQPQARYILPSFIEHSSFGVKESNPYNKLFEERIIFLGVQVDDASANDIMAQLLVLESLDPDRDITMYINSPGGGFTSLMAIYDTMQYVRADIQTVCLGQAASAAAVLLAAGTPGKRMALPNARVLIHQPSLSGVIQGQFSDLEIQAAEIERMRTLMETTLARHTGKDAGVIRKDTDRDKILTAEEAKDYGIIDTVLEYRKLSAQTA
UniProt I6X8D2, whole entry: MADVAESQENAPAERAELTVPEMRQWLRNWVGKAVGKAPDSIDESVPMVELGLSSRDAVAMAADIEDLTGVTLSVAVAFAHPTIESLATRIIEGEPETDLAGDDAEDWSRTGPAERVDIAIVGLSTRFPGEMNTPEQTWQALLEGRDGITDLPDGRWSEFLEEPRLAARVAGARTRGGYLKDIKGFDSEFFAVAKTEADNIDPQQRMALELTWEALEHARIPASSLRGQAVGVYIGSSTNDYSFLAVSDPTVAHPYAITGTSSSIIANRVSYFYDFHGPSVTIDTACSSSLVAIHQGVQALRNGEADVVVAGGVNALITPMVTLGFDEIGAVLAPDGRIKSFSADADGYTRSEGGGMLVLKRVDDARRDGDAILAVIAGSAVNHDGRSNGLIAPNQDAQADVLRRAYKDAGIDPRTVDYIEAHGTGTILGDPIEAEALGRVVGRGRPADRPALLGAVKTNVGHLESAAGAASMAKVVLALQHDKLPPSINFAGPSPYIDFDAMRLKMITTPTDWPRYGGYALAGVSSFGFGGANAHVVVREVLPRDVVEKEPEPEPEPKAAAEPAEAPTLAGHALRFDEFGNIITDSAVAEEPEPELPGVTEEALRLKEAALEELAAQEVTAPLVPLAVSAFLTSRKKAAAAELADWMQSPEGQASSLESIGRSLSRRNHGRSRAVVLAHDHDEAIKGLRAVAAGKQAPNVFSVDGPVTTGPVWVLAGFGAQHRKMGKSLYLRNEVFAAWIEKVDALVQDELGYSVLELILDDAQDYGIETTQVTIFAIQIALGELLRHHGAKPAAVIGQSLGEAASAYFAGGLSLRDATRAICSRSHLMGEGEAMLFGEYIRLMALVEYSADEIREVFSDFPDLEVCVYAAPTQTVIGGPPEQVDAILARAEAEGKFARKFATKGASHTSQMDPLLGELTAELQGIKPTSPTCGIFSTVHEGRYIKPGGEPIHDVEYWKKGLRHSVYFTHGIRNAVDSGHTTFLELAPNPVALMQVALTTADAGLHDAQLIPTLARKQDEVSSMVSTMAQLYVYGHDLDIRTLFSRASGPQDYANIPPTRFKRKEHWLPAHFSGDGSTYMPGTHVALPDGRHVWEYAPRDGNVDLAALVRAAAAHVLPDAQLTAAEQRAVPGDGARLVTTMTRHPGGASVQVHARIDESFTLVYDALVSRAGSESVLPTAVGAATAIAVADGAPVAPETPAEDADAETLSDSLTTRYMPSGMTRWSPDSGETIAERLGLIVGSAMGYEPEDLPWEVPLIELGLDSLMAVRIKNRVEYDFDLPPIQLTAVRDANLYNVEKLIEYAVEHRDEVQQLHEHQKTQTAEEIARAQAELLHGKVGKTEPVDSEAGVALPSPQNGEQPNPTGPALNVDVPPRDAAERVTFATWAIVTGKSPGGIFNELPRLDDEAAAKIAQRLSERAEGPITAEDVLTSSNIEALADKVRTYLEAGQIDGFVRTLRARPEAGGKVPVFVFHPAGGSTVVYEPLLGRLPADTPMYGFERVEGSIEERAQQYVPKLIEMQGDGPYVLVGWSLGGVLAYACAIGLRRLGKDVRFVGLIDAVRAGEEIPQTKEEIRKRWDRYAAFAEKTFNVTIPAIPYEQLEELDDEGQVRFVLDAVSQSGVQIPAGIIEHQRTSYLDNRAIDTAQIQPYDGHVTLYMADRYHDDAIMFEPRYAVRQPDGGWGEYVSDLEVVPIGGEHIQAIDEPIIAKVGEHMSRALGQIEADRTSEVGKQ
UniProt Q8IDJ8, 1-583: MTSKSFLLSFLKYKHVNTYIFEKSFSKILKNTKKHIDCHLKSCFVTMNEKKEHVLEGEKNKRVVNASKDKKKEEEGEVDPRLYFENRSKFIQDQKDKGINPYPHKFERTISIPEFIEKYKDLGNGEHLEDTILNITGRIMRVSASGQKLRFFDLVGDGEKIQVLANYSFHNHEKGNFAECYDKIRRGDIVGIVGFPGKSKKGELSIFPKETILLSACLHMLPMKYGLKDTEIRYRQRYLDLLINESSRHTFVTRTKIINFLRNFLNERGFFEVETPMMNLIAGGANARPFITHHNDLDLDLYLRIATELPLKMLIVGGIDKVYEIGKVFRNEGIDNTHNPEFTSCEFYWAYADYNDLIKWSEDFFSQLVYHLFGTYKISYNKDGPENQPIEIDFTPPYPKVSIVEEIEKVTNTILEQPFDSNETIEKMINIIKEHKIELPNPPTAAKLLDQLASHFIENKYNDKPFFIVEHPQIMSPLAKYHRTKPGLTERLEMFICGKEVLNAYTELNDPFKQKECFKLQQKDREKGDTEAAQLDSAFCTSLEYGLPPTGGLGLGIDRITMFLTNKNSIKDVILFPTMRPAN

Source: ChEMBL document CHEMBL3988442, “University of Dundee, Small-Polar-MMV Screening Library” (2021).

A: 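Enzyme assay of tryptophanyl-tRNA synthetase; the read-out is not stated. Target: Tryptophan-tRNA ligase, Mycobacterium tuberculosis (UniProt P9WFT3). Concentration: 10 µM. Higher most likely means stronger inhibition; the record gives no direction and few retests gave an IC50. Of about 65,000 compounds tested this way, about 64 (0.098%) reached 50% or more in at least one test.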
B: 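Protease assay of ClpP1P2, read by the AMC dye that it sets free. Target: ClpP1P2, Mycobacterium tuberculosis (UniProt P9WPC5 and UniProt P9WPC3). Tested at 50 µM. Higher reads as stronger inhibition, judged from the few compounds that gave an IC50. Most other retested compounds had strongly negative values. Size under these conditions: about 69,000 compounds, about 10 of them at 50% or above in at least one test.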
C: 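Polyketide synthase Pks13, Mycobacterium tuberculosis (UniProt I6X8D2). Enzyme assay of the thioesterase domain of polyketide synthase 13; the read-out is not stated. Tested at 30 µM. Higher reads as stronger inhibition (inferred from which compounds were picked for retests). Of about 67,000 compounds tested this way, about 300 (0.46%) reached 50% or more in at least one test.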
D: 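Lysine-tRNA ligase, Plasmodium falciparum 3D7 (UniProt Q8IDJ8). Enzyme assay of the cytosolic lysyl-tRNA synthetase in 384-well plates, read by luminescence. Concentration: 30 µM. Higher reads as stronger inhibition, judged from the few compounds that gave an IC50. Size under these conditions: about 69,000 compounds, about 49 of them at 50% or above in at least one test.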

The filed quantity is “Percent Effect” (%). How 0% and 100% were set is not recorded. Most values in the screen are low, and negative values occur. The compounds are a random part of those screened. A dash means the value is not listed here; it may have been measured.

SMILES,A,B,C,D
Cc1ccc(C)c(OC(C)C(=O)NCc2cccnc2)c1 (configuration not stated),-1.211,4.196,-19.9,2.979
Cc1nc(C)n(CC2CCCCN2CC(=O)Nc2cc(C)on2)n1 (configuration not stated),4.023,-1.2,1.278,1.846
CN1CCOCC12CCN(Cc1nccs1)CC2,4.722,-1.982,-13.96,-2.709
CO[C@H]1C[C@@H](O)C12CCN(C(=O)NCc1ccco1)CC2,-1.088,-0.4275,-5.227,1.088
COCCCN1Cc2cccc(NC(=O)c3ccccc3C)c2C1,5.286,-7.818,-8.529,-4.826
CCc1noc(C2CCCCN2C(=O)c2cccs2)n1 (configuration not stated),1.684,-10.06,2.475,2.678
Cc1ccc(CN2CC[C@H]3CO[C@H](CN(C)Cc4ccco4)[C@H]3C2)s1,6.667,2.814,-10.37,4.993
CCOCC(=O)NS(=O)(=O)c1ccc(F)cc1C(F)(F)F,1.774,-17.83,2.312,4.211
CO[C@H]1CC[C@H]2[C@H]1OCCN2C(=O)c1ccc(C)nc1,-10.69,-9.017,-32.07,4.646
CCOC(=O)c1n[nH]cc1-c1cncn1CCn1nc(C)c(Cl)c1C,-3.765,-22.93,-3.872,1.93
Cn1cc(C2CCCN2C(=O)CCCOCc2ccccc2)cn1 (configuration not stated),0.5508,-2.852,-20.9,4.776
C=C(C)COc1cccc(CN(C)C(C)c2ccncn2)c1 (configuration not stated),-6.133,-1.595,-6.059,1.677
Cc1noc(NC(=O)CCNC(=O)c2ccc(Br)cc2)n1,14.56,-2.36,-12.4,1.508
CC(C)(CCS(C)(=O)=O)CNC(=O)NC1CCCCC1(C)C (configuration not stated),-1.386,5.917,-9.15,-1.112
Cc1nnc(N2CCO[C@H]3[C@@H](OCc4ccccn4)CC[C@@H]32)s1,7.246,-3.533,-15.04,3.022
CCSCc1cccc(NC(=O)N(C)Cc2ncnn2C)c1,-1.774,-3.96,-8.549,6.369
OCCNC1CCc2cc3c(cc21)OCCO3 (configuration not stated),-4.444,-7.754,-8.334,1.796
O=C(CCC1CC1)N1CCC(n2cc(C3(O)CCCC3)nn2)CC1,9.804,4.755,16.03,1.41
CNCC(=O)N1CC(c2cc(Nc3nc(C)cs3)nc(C)n2)C1,-,2.422,-12.93,2
CC(C)c1nc(CNC(C(=O)N2CCOCC2)C(C)C)no1 (configuration not stated),-9.091,-4.207,-14.25,2.519
CCN1CCN(S(=O)(=O)c2ccc(Cc3cc(C)n[nH]c3=O)cc2)CC1,0.8653,-13.44,-16.23,0
Cc1cnn(CC2CCCN2c2ncnc3ccsc23)c1 (configuration not stated),1.355,-13.63,-17.46,0.8305
O=C(Cc1n[nH]c(-c2cncc(Br)c2)n1)NCc1ccncc1,1.586,-7.873,9.874,-1.821
COCCN(C)Cc1cc(Cl)ccc1OCC(O)CN1CCCCCC1 (configuration not stated),-0.7651,-18.61,-6.012,2.762
Cc1nc(CN2CC3(CCN(c4ncccn4)C3)CC2=O)cs1 (configuration not stated),0.9682,9.771,4.166,5.146
Cc1ncsc1C(=O)N1CCN(Cc2ccccc2)CC1C (configuration not stated),-1.273,-1.851,-9.668,2.279
Cc1c(CN2CCc3nc4sccc4c(=O)n3CC2)cnn1C,-4.651,-11.79,-7.953,-0.304
Cc1nn(C)c(N2CCOCC2)c1CNC(C)c1cccnc1 (configuration not stated),-3.791,0.3632,-6.668,1.372
CN(CCOc1cccc(Cl)c1)Cc1nnc(C(C)(C)C)o1,-6.416,-2.642,7.345,4.495
CCNc1nnc(CCn2nc(C)c(Br)c2C)s1,-1.223,-1.994,-16.8,2.767
O=C(COc1cccc(Cl)c1)N1CCOCC1c1ncon1 (configuration not stated),60.17,-18.39,-14.93,-2.266
CC(C)CCc1nc(CNCC2CN(C)CCO2)cs1 (configuration not stated),33.94,9.244,-19.26,0.7884

4 of the entries, repeated:

SMILES,A,B,C,D
Cc1ccc(CN2CC[C@H]3CO[C@H](CN(C)Cc4ccco4)[C@H]3C2)s1,6.667,2.814,-10.37,4.993
CO[C@H]1CC[C@H]2[C@H]1OCCN2C(=O)c1ccc(C)nc1,-10.69,-9.017,-32.07,4.646
Cc1nc(CN2CC3(CCN(c4ncccn4)C3)CC2=O)cs1 (configuration not stated),0.9682,9.771,4.166,5.146
Cn1cc(C2CCCN2C(=O)CCCOCc2ccccc2)cn1 (configuration not stated),0.5508,-2.852,-20.9,4.776